Data as given in doi:10.1101/2022.11.11.516191.
These are yes or no findings as the source states them, for the method shown. Some entries that bind do so weakly or less than the wild type.

B1: 14-3-3 β 130nY, P31946 1-246 (natural protein)
chain: MTMDKSELVQKAKLAEQAERYDDMAAAMKAVTEQGHELSNEERNLLSVAYKNVVGARRSSWRVISSIEQKTERNEKKQQMGKEYREKIEAELQDICNDVLELLDKYLIPNATQPESKVFYLKMKGDYFRYLSEVASGDNKQTTVSNSQQAYQEAFEISKKEMQPTHPIRLGLALNFSVFYYEILNSPEKACSLAKTAFDEAIAELDTLNEESYKDSTLIMQLLRDNLTLWTSENQGDEGDAGEGEN
modifications: here or on the partner: 3-nitro-tyrosine at 130 (β-isoform numbering); 3-nitro-tyrosine at 130 (β-isoform numbering)
B2: 14-3-3 β 213nY, P31946 1-246 (natural protein)
chain: MTMDKSELVQKAKLAEQAERYDDMAAAMKAVTEQGHELSNEERNLLSVAYKNVVGARRSSWRVISSIEQKTERNEKKQQMGKEYREKIEAELQDICNDVLELLDKYLIPNATQPESKVFYLKMKGDYFRYLSEVASGDNKQTTVSNSQQAYQEAFEISKKEMQPTHPIRLGLALNFSVFYYEILNSPEKACSLAKTAFDEAIAELDTLNEESYKDSTLIMQLLRDNLTLWTSENQGDEGDAGEGEN
modifications: here or on the partner: 3-nitro-tyrosine at 213 (β-isoform numbering); 3-nitro-tyrosine at 213 (β-isoform numbering)

Columns and labels:
[1] = biological target: T1, 14-3-3 β 130nY (human), P31946; experiment: crystal structure; settings: remark: other sources report otherwise
T1 chain: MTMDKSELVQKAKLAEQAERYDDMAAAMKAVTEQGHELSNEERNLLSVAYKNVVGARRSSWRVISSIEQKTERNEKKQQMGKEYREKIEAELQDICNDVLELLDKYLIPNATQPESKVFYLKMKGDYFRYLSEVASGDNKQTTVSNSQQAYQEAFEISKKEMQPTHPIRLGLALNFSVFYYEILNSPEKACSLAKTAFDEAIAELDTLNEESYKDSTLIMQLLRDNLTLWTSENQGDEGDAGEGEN

[2] = biological target: T2, 14-3-3 β 213nY (human), P31946; experiment: crystal structure; settings: remark: other sources report otherwise
T2 chain: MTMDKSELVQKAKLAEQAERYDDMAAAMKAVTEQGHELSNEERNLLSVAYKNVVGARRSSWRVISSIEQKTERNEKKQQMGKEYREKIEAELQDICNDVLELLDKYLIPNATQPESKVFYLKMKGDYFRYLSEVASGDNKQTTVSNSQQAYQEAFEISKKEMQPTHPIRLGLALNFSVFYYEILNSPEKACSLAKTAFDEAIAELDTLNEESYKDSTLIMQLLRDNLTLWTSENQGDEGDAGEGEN

Row | Binder | binding [1] | binding [2]
1 | B1 | binds | 
2 | B2 |  | binds
